The values below come from PMC12866682 (2025).

The chains behind the UniProt entries cited, without tags or fusion partners. Where a name states a change or a piece, a line headed by the entry shows the natural chain unless it says otherwise. Residues count along the entry.
UniProt Q9NZC2, residues 19-230: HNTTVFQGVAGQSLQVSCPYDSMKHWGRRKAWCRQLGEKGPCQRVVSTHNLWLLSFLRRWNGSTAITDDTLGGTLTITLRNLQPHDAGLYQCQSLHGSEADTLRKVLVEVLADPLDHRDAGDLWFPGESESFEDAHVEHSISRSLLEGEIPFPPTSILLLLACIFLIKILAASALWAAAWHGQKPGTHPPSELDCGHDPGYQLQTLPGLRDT
UniProt P08311: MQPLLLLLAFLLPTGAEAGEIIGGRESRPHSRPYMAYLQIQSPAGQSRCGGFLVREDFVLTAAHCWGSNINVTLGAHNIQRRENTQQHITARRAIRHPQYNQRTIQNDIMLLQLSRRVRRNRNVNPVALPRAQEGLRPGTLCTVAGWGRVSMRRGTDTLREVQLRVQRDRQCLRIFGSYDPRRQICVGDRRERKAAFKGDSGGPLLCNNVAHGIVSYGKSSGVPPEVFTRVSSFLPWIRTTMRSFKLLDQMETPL
UniProt P05164, residues 49-745: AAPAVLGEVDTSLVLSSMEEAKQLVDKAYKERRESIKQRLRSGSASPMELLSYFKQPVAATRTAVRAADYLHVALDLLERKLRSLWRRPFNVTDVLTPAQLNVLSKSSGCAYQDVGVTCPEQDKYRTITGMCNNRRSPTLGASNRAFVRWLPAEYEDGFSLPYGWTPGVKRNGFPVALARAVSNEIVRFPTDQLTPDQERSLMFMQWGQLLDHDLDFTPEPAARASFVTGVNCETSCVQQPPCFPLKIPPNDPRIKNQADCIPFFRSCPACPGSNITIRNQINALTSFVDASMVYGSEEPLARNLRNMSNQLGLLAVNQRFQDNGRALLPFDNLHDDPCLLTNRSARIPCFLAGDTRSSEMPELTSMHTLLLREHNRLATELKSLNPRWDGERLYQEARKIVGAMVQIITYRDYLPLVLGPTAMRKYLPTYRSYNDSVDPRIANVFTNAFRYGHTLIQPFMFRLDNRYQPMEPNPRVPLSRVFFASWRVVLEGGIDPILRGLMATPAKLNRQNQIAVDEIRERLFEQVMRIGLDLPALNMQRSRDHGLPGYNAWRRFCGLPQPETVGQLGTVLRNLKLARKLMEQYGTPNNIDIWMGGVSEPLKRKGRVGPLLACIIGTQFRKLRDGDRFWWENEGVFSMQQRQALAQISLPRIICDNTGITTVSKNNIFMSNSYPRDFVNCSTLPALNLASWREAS

Assay [1] has as its target HA-tagged TREM2, WT (full length, FL) (UniProt Q9NZC2). Kind of assay: co-IP; HEK293T cells transfected with HA-tagged TREM2 and FLAG-tagged plasmids for 24 h; lysates immunoprecipitated with anti-HA beads (or anti-FLAG beads), Western blotting for HA and FLAG.
For assay [2], the target named is Purified human TREM2 protein (human) (UniProt Q9NZC2). As to the kind of experiment: SPR; Biacore, 25 °C; human TREM2 immobilised on a CM5 chip by amine coupling; human MPO at 31.25, 62.5, 125, 250, 500 and 1000 nM; both purified.

These are yes or no findings as the source states them, for the method shown. For some assays here: Binding calls can cover weak binding; strength is not graded here. For some assays here: Binding seen in cells or lysates may run through a third protein.

Regarding FLAG-tagged CTSG (from UniProt P08311), the binding result in assay [1] is recorded as “no binding”. Consider “Purified human MPO (from UniProt P05164 49-745) (ligand)”, for which the binding result in assay [2] is “binds”.
